Experimental data taken from publication PMC10482750.
These are yes or no findings as the source states them, for the method shown. Some results given as binding are weak or reduced against the parent protein; the word gives no strength. Tags and fused reporters may be left off the sequences shown. Each block holds one binder with its values, some of them ahead of it.

Chains of the proteins cited; added tags and fusions are not shown.
UniProt Q9V460: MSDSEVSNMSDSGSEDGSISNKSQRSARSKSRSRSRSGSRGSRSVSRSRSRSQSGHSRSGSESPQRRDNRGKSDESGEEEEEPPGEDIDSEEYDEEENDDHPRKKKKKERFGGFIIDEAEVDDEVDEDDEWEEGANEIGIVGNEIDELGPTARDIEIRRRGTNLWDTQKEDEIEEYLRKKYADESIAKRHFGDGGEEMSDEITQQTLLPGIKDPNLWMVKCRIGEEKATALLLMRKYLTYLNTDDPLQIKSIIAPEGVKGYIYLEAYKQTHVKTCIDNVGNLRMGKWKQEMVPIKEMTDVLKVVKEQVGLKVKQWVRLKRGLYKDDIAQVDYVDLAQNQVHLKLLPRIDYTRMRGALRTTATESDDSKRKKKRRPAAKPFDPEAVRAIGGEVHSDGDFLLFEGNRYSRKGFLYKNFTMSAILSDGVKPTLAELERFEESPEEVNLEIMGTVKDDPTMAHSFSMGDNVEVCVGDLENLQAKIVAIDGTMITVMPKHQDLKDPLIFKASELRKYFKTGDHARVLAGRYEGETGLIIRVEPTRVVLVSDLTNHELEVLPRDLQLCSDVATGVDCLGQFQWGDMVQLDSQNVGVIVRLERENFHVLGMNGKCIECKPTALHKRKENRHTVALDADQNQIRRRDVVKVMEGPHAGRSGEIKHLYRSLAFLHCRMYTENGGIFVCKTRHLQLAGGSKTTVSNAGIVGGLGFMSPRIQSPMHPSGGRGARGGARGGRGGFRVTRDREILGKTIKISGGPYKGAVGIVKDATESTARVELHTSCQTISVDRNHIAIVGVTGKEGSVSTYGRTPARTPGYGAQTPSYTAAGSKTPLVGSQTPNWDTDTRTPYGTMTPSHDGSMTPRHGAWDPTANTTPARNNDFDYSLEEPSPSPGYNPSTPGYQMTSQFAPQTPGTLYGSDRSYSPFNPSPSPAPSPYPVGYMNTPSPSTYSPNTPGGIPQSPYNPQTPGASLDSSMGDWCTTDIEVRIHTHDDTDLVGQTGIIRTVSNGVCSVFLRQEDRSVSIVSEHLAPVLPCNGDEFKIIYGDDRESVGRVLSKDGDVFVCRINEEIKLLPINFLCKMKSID

Assays:
[1] = molecular target: T1, NELF-D-3x-FLAG (Drosophila) (UniProt Q24134); experiment: tandem affinity co-purification; four NELF subunits co-expressed in Sf9; Ni-NTA (His10-NELF-E), then anti-FLAG resin (NELF-D-3x-FLAG); washes up to 500 mM NaCl, 250 mM KCl and 0.4 M KCl
T1 sequence: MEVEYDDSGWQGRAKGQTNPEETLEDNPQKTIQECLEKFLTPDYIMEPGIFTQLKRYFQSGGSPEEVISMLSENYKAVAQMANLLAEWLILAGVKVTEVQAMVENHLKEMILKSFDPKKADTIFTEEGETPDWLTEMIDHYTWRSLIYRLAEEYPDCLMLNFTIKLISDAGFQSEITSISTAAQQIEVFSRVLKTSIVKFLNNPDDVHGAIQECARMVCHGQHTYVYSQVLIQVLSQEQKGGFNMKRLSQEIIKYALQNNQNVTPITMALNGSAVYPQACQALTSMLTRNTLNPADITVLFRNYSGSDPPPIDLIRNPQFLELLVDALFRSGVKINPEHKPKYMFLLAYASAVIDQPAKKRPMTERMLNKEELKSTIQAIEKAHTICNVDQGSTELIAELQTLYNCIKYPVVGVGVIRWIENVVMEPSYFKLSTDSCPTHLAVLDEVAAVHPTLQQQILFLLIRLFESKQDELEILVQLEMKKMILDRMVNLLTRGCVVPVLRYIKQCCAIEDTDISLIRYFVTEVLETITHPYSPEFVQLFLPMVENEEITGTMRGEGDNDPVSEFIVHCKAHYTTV

[2] = molecular target: Spt5, C-terminal FLAG-tagged (Drosophila) (UniProt Q9V460); experiment: tandem affinity co-purification; Spt5-FLAG and Spt4-His6 co-expressed in E. coli; Talon metal affinity resin, then anti-FLAG resin; washes with 300 mM NaCl
[3] = molecular target: T2, His10-NELF-E (Drosophila) (UniProt P92204); experiment: tandem affinity co-purification; four NELF subunits co-expressed in Sf9; Ni-NTA (His10-NELF-E), then anti-FLAG resin (NELF-D-3x-FLAG); washes up to 500 mM NaCl, 250 mM KCl and 0.4 M KCl
T2 sequence: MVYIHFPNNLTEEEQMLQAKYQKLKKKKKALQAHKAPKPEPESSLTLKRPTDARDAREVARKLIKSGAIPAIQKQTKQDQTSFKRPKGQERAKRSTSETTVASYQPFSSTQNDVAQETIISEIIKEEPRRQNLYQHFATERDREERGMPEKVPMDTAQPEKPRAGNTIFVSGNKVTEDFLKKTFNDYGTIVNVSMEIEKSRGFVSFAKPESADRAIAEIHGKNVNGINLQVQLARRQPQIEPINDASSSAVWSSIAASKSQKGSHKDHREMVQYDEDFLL

binding [1]: binds
B1: His10-NELF-E (protein, UniProt P92204 1-280)
chain: T2 sequence

binding [2]: binds
B2: Spt4, C-terminal His6-tagged (protein, UniProt Q9TVQ5 1-116)
chain: MAFDAIPKDLRGLRACLVCSLVKSFDQFETDGCENCEEFLRMKNNKDNVYDHTSNNFDGIIALTTPTDSWVAKWQRLSRFTRGIYAISVSGTLPQSTLRDMKNRGIVYKSRDRSQR

binding [1]: binds
binding [3]: binds
B3: NELF-A (protein, UniProt Q86NP2 1-1251)
chain: MANVRDSDTSLWLHNKLGTSNDSWINGSICSQLNKEVLRNIKECFPDLQTQVKLKLLLSFLHIPRRLVEEWKAELEEVIEVAGLDSELWVSMLAETMKTFPATSSLNTEISDYEDTRPIFIDMVNDLRKLVTKHSDLGMLPLECQYLNKNALISVVGQQPAPVKHFTLKRKPKSAQLRTELLHKSADAQSSLKKASAPTIPLRSRGMPRKMTDTTPLKGIPSRMPTTGFRSATVPGNAAQRPNLSRTPAGRKDGGIKLIEFTEQPLGYAAAKKRKREQQLEEQQKKQEQKQQQAAAAAAAAATAAASNAGDSSPTDAATASGGETPVTPTSANNSFEIKMEPQQLNQSAGSLEEPQDDEMSGKANMECDIETPEYATATLDFAQATSTSVADGQPGKPAVETKLKTPRTPKSAAKLNNNNNNNNNNSFNHTPKRIKQEIEIKSEEIIVPASIKLEKIETSPSTQRVSIQQQPPSLVQRTPHLLIRSSPQKRQNNGATTSAGTTTTTVGNTTIKMEKLDIKPMIRATGVSPSTSAGTTTTLLTPQQLRQAANPLANLPNNISVKITSAKAKAAAAAAATSSGSQTQSQQPQTLQVQQAPQQSHPPLLINSSTPVILASSPSAQRAKALALPSSSTSATTTTTIPSQAIKTMPLSQLKTATNSGPVIISQTIIQPAKRAQQQAGTSSAAAASQQQQQQQSQQQLLHQQIQQQTQQQAQLPQQPQQQQTQYILATPQQQPQQIQQQQQQQQPILPTLTSFSHSRPMPQTTTLYQATTPSGSGQTPTKILLKTSGSSSVVMTPLRQAQPQQATAVVSSNPPPLVATSAAVVSPGQTTLNIQNVQLPNRPVTIQPASQAAQQQHMQAQLQQQQPHPQHTIVANTTATQQPKLSQVLMQPTAAVGTSGVSALNVSPTSGKNKTIILTQKGVILRNIGGDMYQQIPISNVGNMQGLGGTTLMTTTAGPPSLVKTTPSSGVQLQQQQSGKQILPTLIPTSSLGGQHVIVQQQQPTNVIGNSQQQTIIRPVMTNVGGGLTTLPQGLTLIQRPGQQPQLVQVQAAPGSTQRTIITQSNTAAAASQQQPRQQQQQILVQHKPAPTLQQRLVTSTTSGGQGQQGNPNAGLPRTVQVQVQAQQQQQPQQQQATQQQSQQAPQRRGLSLSNEHVHKAHEMFRKANRVSRPDKALILGFMAGLRENPRPNNENVLVIKLGETEEKVQQDNGHTALCLVESHIRLDYNTGEWKTFQNYRLQDQSAAS
